These are yes or no findings as the source states them, for the method shown. Some results given as binding are weak or reduced against the parent protein; the word gives no strength. Sequences can lack the tags named with a protein.

By UniProt entry, the sequences of proteins in these tests, tags left out.
UniProt Q05397: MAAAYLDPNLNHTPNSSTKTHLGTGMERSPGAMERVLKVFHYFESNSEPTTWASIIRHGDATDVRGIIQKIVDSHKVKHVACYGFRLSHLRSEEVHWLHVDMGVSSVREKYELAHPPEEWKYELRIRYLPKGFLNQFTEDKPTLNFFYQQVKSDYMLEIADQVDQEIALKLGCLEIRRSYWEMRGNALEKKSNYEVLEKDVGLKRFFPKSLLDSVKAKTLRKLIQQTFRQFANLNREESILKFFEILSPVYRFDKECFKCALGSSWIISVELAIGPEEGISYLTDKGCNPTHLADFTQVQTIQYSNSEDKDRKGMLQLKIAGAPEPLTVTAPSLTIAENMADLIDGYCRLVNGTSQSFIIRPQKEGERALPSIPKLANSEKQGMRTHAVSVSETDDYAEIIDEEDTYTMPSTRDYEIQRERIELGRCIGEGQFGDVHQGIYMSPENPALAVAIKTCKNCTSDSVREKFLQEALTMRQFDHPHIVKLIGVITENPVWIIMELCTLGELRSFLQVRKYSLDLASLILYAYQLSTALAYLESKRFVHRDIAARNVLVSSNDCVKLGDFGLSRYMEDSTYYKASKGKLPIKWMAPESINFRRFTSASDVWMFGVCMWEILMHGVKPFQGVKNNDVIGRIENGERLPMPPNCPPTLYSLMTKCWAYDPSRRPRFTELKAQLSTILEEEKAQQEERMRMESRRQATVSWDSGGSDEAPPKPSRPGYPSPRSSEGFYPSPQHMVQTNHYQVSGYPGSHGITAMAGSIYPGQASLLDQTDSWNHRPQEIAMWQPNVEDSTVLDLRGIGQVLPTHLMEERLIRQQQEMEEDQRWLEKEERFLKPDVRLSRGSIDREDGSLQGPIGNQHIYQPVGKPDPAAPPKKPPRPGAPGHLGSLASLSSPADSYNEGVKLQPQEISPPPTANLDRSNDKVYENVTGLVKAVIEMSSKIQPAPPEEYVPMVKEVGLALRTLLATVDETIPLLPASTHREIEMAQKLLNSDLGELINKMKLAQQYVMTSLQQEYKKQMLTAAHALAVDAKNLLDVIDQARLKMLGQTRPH

The target in this test is T1, GST-DUSP22 (not stated (human or mouse cDNA cloned)) (UniProt Q9NRW4).
T1 sequence: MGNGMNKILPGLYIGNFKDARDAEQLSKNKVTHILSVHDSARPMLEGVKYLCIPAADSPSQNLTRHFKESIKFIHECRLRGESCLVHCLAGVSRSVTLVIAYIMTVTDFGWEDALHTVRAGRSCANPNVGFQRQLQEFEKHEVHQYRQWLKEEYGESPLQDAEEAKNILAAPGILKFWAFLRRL
Description: pull-down; GST-DUSP22 or GST-FAK from E. coli extracts on GST beads (4 °C, 1 h), then incubated 4 h with Flag-tagged FAK or Flag-tagged DUSP22 prepared by IP; eluate blotted with anti-Flag; GST alone as control; both purified.

Consider “Flag-tagged FAK (from UniProt Q05397 1-1052)”, for which the binding entry is “binds”.

For the origin of these results see article PMC9547917.
